Results as given in patent publication EP0594764B1 (dated 1993).
Where a sequence shows no end group, the ends are not given.

Assay: general procedure: Fmoc solid-phase peptide synthesis; DIPCDI and HOBt
Conditions: whole synthesis, 210 nm

## YFVIKINLFYNSNSPVWKKKQPALF
  final HPLC purity: more than 80% purity
